Measurements from the supplement of paper PMC10849652.
Some of the results follow.

By UniProt entry, the sequences of proteins in these tests, tags left out. Where a name states a change or a piece, a line headed by the entry shows the natural chain unless it says otherwise.
UniProt P23258, whole entry, looked up: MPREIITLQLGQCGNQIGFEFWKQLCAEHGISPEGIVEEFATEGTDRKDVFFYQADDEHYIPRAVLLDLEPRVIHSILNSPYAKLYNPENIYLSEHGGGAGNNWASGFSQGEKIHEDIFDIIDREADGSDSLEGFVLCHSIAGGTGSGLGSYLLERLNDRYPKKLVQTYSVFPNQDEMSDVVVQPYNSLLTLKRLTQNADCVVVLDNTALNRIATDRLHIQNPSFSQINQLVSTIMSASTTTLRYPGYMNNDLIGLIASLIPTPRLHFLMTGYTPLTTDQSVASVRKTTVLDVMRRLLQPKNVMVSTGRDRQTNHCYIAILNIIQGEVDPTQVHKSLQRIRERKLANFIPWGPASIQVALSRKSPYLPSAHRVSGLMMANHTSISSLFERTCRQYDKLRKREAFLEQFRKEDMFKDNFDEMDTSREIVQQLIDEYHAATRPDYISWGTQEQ
UniProt P63146, whole entry, looked up: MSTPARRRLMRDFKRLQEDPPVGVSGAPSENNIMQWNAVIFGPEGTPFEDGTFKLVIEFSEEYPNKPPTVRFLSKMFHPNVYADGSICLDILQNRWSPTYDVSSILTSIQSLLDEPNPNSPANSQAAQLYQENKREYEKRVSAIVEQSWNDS
UniProt O94888: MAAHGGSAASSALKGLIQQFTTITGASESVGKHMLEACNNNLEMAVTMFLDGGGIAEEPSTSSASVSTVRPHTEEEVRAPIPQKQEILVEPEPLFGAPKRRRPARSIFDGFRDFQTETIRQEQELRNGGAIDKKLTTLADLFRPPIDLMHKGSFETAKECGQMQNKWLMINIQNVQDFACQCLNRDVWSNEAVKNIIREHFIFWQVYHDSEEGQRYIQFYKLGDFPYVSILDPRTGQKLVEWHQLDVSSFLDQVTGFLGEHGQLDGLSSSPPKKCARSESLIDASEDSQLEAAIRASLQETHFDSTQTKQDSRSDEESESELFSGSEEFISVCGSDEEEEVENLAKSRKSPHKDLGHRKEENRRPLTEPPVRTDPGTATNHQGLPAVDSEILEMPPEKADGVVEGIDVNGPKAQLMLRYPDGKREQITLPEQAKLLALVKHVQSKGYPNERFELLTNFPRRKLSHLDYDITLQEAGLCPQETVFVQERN
UniProt Q9NNW7, whole entry, looked up: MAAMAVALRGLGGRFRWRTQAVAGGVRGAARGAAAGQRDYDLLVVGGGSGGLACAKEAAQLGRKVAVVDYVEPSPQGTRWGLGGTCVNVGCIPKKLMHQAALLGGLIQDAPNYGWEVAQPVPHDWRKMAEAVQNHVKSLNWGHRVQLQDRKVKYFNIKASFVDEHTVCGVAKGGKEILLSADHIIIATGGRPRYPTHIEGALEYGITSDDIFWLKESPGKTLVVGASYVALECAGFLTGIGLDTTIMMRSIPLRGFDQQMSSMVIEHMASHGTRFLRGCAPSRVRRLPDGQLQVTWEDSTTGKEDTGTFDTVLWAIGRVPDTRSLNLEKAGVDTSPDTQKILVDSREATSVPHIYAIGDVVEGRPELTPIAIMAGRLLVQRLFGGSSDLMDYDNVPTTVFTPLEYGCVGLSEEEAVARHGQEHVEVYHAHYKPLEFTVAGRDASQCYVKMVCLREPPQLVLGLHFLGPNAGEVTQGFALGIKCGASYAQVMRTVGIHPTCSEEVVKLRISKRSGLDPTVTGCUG
UniProt Q96J42: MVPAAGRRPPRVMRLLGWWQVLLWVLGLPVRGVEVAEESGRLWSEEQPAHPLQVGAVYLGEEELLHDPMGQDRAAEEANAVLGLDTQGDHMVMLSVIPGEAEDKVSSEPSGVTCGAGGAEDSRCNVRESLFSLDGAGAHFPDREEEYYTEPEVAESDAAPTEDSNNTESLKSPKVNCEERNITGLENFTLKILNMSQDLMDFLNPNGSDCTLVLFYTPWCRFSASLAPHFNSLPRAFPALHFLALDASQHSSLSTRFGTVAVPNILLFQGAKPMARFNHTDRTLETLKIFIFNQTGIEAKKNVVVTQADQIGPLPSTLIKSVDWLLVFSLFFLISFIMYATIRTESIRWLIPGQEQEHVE
UniProt Q9BZX2: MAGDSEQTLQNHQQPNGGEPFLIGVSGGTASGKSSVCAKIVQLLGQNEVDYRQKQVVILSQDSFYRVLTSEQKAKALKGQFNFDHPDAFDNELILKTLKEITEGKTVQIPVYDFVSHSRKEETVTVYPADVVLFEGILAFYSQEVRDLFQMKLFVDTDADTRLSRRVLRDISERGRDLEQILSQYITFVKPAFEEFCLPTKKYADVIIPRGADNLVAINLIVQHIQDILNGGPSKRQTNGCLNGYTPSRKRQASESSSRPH
UniProt P26368, whole entry, looked up: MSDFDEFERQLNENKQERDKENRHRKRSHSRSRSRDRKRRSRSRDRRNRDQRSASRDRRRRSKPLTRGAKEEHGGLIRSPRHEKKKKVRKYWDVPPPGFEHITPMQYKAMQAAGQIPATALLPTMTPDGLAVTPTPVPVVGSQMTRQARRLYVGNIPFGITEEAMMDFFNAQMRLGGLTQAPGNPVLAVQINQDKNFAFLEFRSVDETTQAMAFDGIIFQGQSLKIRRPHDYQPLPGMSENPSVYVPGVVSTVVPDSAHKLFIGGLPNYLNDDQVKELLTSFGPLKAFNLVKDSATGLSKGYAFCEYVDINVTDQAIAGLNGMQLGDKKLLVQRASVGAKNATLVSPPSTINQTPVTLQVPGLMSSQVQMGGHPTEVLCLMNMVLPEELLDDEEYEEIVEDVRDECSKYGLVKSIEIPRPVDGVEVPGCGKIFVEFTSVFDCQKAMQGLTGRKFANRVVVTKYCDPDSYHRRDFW
UniProt Q15819: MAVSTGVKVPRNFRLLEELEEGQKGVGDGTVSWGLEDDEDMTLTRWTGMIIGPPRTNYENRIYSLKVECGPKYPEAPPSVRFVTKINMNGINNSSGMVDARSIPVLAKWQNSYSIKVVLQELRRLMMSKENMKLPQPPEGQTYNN
UniProt Q9NZ09: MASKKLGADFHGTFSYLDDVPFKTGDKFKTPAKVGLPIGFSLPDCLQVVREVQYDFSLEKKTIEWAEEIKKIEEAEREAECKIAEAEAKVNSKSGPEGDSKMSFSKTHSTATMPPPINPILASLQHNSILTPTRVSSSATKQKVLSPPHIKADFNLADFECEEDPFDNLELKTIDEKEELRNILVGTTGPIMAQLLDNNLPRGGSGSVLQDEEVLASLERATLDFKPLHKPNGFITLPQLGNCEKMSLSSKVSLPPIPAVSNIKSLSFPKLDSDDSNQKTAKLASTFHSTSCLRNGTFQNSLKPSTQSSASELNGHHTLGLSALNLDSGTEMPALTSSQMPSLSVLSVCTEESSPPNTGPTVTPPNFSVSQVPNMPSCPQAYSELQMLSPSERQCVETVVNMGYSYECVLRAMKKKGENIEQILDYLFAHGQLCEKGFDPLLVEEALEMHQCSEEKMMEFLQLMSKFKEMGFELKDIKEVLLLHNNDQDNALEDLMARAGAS
UniProt P07437, whole entry, looked up: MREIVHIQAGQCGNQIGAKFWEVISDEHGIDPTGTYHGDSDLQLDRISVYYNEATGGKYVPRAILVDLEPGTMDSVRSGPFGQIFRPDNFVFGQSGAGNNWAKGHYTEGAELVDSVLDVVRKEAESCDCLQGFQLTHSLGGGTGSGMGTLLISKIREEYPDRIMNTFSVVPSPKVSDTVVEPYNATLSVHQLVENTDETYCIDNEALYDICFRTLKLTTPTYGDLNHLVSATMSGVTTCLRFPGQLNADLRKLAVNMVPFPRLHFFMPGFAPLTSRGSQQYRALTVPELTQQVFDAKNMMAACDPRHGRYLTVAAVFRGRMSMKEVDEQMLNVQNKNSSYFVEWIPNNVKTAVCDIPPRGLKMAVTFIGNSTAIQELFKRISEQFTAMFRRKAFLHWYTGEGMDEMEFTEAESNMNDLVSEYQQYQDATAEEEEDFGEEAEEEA
UniProt P61081: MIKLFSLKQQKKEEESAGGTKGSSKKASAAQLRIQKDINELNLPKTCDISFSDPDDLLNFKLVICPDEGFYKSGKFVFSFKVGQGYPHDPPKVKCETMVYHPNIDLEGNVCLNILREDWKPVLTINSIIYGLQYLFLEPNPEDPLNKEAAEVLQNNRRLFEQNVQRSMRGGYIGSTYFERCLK
UniProt Q14CS0: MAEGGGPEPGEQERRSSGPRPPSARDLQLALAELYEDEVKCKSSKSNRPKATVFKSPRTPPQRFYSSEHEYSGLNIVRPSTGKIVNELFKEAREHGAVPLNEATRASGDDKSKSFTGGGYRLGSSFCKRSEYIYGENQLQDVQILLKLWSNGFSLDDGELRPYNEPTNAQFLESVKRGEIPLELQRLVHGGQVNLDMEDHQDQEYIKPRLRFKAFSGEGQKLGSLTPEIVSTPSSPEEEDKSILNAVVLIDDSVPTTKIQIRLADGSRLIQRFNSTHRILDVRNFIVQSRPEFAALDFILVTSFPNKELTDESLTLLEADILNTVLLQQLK
UniProt A6NNZ2, whole entry, looked up: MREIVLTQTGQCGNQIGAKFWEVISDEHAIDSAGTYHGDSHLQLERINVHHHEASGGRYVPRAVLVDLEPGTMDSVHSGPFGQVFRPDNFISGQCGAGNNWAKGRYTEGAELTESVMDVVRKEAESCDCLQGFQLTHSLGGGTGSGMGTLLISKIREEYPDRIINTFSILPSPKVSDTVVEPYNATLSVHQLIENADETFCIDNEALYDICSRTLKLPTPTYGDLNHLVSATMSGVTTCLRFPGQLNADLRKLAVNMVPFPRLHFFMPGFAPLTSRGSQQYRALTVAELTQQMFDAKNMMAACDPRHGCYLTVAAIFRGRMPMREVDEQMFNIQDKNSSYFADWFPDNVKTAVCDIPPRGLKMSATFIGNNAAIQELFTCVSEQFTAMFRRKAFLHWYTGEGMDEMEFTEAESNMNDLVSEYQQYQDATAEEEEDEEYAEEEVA
UniProt P04818: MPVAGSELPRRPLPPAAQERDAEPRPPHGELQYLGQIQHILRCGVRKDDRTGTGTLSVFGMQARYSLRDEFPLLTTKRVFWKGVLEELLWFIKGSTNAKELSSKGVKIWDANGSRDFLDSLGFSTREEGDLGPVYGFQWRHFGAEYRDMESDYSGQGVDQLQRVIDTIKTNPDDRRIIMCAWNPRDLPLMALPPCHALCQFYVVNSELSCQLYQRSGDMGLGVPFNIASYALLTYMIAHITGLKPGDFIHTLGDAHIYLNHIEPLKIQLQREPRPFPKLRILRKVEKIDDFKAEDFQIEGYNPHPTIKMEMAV
UniProt Q7Z3V4: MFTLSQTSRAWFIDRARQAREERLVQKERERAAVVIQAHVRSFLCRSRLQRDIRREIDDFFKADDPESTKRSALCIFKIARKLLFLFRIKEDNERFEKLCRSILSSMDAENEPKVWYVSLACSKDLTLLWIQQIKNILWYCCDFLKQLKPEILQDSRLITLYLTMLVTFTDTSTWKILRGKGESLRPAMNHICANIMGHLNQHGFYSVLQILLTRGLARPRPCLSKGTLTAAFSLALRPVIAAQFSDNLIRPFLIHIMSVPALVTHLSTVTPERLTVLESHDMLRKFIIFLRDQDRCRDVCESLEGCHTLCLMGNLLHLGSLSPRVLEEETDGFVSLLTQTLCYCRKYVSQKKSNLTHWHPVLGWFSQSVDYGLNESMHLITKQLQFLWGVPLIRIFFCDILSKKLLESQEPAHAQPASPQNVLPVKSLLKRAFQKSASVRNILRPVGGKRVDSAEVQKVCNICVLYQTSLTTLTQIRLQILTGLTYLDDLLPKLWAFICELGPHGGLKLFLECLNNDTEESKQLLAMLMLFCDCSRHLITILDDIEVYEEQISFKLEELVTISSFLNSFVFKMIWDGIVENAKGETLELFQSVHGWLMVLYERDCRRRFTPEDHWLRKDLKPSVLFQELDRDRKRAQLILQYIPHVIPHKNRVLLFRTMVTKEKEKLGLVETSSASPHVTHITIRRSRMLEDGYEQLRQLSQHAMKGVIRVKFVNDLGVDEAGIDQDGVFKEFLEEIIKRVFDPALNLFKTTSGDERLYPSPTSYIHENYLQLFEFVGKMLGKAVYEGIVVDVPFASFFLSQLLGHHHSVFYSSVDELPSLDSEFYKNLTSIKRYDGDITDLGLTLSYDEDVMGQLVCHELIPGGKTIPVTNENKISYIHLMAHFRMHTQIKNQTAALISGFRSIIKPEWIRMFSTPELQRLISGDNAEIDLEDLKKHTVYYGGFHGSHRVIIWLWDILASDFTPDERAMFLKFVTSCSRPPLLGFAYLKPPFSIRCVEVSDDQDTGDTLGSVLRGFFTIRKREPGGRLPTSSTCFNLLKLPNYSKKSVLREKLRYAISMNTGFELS
UniProt P62253: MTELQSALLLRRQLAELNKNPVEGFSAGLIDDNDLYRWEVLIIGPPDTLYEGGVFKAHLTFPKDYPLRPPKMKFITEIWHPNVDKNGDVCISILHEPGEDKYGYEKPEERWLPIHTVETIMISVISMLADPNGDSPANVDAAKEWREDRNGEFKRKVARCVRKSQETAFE
UniProt P61086: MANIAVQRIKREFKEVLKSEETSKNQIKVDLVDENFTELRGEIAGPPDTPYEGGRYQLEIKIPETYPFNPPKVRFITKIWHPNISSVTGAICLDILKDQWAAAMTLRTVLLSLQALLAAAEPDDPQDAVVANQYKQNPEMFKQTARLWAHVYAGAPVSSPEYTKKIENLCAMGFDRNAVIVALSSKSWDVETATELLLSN

Assays:
Experiment in all cases: log2 fold change, soluble protein after heating vs DMSO (PISA); higher = thermal stabilisation; K562 lysate, 10 uM; active = over 0.2 and 3.5 SD of the protein, either way, in both replicates (recomputed)
[1] = compound: CCCS(=O)(=O)Nc1ccc(F)c(C(=O)c2c[nH]c3ncc(-c4ccc(Cl)cc4)cc23)c1F [vemurafenib]
In short: (§1)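 Dounce homogenisation of K562 pellets in PBS pH 7.4 with 1 mM MgCl2 produced a crude extract, used at 1 mg/mL protein. Exposure to 10 μM compound lasted 30 min, and aliquots were then heated for 3 min across 48°C-58°C, pooled and brought to 0.5% NP-40 at 4°C. The supernatant after 21,000xg for 90 min was quantified by TMTpro 16plex LC-MS/MS with channel sums equalised. Duplicate values are given as log-two fold change in thermal stability relative to solvent controls.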

[2] = compound: CCCS(=O)(=O)Nc1ccc(F)c(C(=O)c2c[nH]c3ncc(Cl)cc23)c1F
In short: as §1

[3] = compound: CCN(CCCOc1ccc2c(Nc3cc(CC(=O)Nc4cccc(F)c4)[nH]n3)ncnc2c1)CCOP(=O)(O)O [barasertib]
In short: as §1

[4] = compound: CC[C@@H]1C(=O)N(C)c2cnc(Nc3ccc(C(=O)NC4CCN(C)CC4)cc3OC)nc2N1C1CCCC1
In short: as §1

[5] = compound: CC[C@@H]1C(=O)N(C)c2cnc(Nc3ccc(C(=O)N[C@H]4CC[C@H](N5CCN(CC6CC6)CC5)CC4)cc3OC)nc2N1C(C)C [volasertib]
In short: as §1

[6] = compound: CCn1c(C(=O)N(C2CC2)C2CC2)cc2c3c(ncn3C)c(Nc3cc(C)n(C)n3)nc21
In short: as §1

[7] = compound: CCn1cc(-c2ccnc3[nH]c(-c4cccc(CN(C)C)c4)cc23)c(-c2ccc(NC(=O)N(C)C)cc2)n1
In short: as §1

[8] = compound: CN1CCC(CNc2ccc3ncc(-c4cccc(OC(F)(F)F)c4)n3n2)CC1
In short: as §1

[9] = compound: CN1CCN(CCOc2cc(OC3CCOCC3)c3c(Nc4c(Cl)ccc5c4OCO5)ncnc3c2)CC1 [saracatinib]
In short: as §1

[10] = compound: CN1CCN(c2nc(C3=C(c4c[nH]c5ccccc45)C(=O)NC3=O)c3ccccc3n2)CC1 [sotrastaurin]
In short: as §1

Measured: log2 fold change

TUBB4B (UniProt P68371)
inactive: [1] 0.006 | [2] 0.004 | [3] -0.092 | [4] -0.032 | [5] -0.034 | [6] 0.005 | [7] -0.134 | [8] -0.011 | [9] 0.03 | [10] -0.021

TXNL1 (UniProt O43396)
inactive: [1] -0.005 | [2] 0.006 | [3] -0.011 | [4] -0.014 | [5] -0.009 | [6] 0.004 | [7] -0.043 | [8] 0.072 | [9] 0 | [10] 0.003

TUBG1 (UniProt P23258)
inactive: [1] -0.021 | [2] 0.024 | [3] 0.008 | [4] -0.013 | [5] -0.044 | [6] -0.008 | [7] -0.017 | [8] 0.011 | [9] -0.018 | [10] 0.021

UBAC1 (UniProt Q9BSL1)
inactive: [1] 0.008 | [2] 0.015 | [3] -0.018 | [4] 0.001 | [5] 0.026 | [6] -0.019 | [7] 0.107 | [8] -0.05 | [9] 0.007 | [10] -0.001

UBE2B (UniProt P63146)
inactive: [1] -0.008 | [2] 0.013 | [3] 0.075 | [4] -0.103 | [5] -0.03 | [6] -0.019 | [7] -0.038 | [8] -0.04 | [9] -0.08 | [10] -0.021

UBXN7 (UniProt O94888)
inactive: [1] 0.01 | [2] 0.011 | [3] -0.01 | [4] 0.058 | [5] 0.005 | [6] -0.04 | [7] -0.044 | [8] 0.021 | [9] 0.003 | [10] 0.017

TXNRD1 isoform 7 (UniProt Q16881)
inactive: [1] 0.261 | [2] -0.026 | [3] -0.107 | [4] 0.351 | [5] 0.282 | [6] -0.127 | [7] -0.424 | [8] 0.313 | [9] 0.04

TXNRD2 (UniProt Q9NNW7)
inactive: [1] -0.004 | [2] 0.036 | [3] -0.047 | [4] 0.023 | [5] -0.005 | [6] -0.008 | [7] -0.031 | [8] 0.082 | [9] 0 | [10] -0.021

UBE4A isoform 2 (UniProt Q14139)
inactive: [1] -0.008 | [2] -0.001 | [3] -0.009 | [4] 0.003 | [5] -0.053 | [6] 0.031 | [7] -0.03 | [8] -0.081 | [9] 0.011 | [10] 0.025

TUBAL3 (UniProt A6NHL2)
inactive: [1] 0.084 | [2] -0.024 | [3] -0.011 | [4] -0.122 | [5] 0.041 | [6] -0.196 | [7] -0.413 | [8] 0.284 | [9] 0.001

UAP1 (UniProt Q16222)
inactive: [1] 0.009 | [2] -0.013 | [3] 0.006 | [4] -0.071 | [5] -0.04 | [6] 0.02 | [7] -0.027 | [8] 0.003 | [9] 0.031 | [10] 0.004

TUSC3 isoform 2 (UniProt Q13454)
inactive: [1] 0.064 | [2] 0.01 | [3] 0.053 | [4] 0.092 | [5] 0.049 | [6] -0.006 | [7] -0.175 | [8] 0.05 | [9] 0.014 | [10] -0.017

U2SURP (UniProt O15042)
inactive: [1] -0.006 | [2] 0.034 | [3] -0.014 | [4] -0.002 | [5] -0.019 | [6] 0.019 | [7] 0.013 | [8] -0.031 | [9] -0.005 | [10] -0.013

TXNDC15 (UniProt Q96J42)
inactive: [1] -0.042 | [2] 0.046 | [3] 0.026 | [4] 0.093 | [5] -0.008 | [6] 0.013 | [7] -0.029 | [8] 0.002 | [9] 0.044 | [10] -0.03

UCK2 (UniProt Q9BZX2)
inactive: [1] 0.027 | [2] 0.011 | [3] 0.012 | [4] -0.037 | [5] -0.051 | [6] -0.012 | [7] -0.036 | [8] 0.063 | [9] 0.03 | [10] 0.024

U2AF2 (UniProt P26368)
inactive: [1] 0.011 | [2] 0.01 | [3] 0.002 | [4] -0.045 | [5] -0.01 | [6] -0.039 | [7] 0.037 | [8] 0.041 | [9] -0.007 | [10] -0.008

UBE2V2 (UniProt Q15819)
inactive: [1] -0.017 | [2] 0.002 | [3] 0.027 | [4] 0.025 | [5] 0.035 | [6] -0.005 | [7] 0.007 | [8] 0.021 | [9] 0.009 | [10] -0.01

UBAP1 (UniProt Q9NZ09)
inactive: [1] 0.031 | [2] -0.024 | [3] 0.003 | [4] 0.063 | [5] 0.024 | [6] 0.064 | [7] 0.008 | [8] -0.023 | [9] -0.008 | [10] -0.01

TUBB (UniProt P07437)
inactive: [1] 0.018 | [2] 0.003 | [3] -0.051 | [4] -0.02 | [5] -0.063 | [6] -0.017 | [7] -0.041 | [8] 0.004 | [9] 0.029 | [10] 0.017

TUBGCP3 (UniProt Q96CW5)
inactive: [1] -0.013 | [2] 0.026 | [3] -0.078 | [4] 0.001 | [5] -0.039 | [6] 0.028 | [7] -0.016 | [8] 0.015 | [9] 0.002 | [10] 0.01

TUT1 (UniProt Q9H6E5)
inactive: [1] 0.004 | [2] 0.056 | [3] 0.06 | [4] -0.017 | [5] -0.062 | [6] 0.035 | [7] -0.077 | [8] -0.041 | [9] 0.005 | [10] 0.016

UBAP2L isoform 5 (UniProt Q14157)
inactive: [1] -0.002 | [2] 0.025 | [3] 0.013 | [4] 0.023 | [5] -0.006 | [6] 0.013 | [7] 0.028 | [8] -0.01 | [9] 0.03 | [10] -0.002

UBE2M (UniProt P61081)
inactive: [1] -0.026 | [2] 0.026 | [3] -0.031 | [4] 0.009 | [5] 0.011 | [6] -0.001 | [7] 0.074 | [8] 0.013 | [9] -0.049 | [10] -0.061

UBR4 (UniProt Q5T4S7)
inactive: [1] -0.003 | [2] 0.016 | [3] 0.02 | [4] -0.037 | [5] -0.03 | [6] 0.019 | [7] -0.034 | [8] -0.031 | [9] 0.01 | [10] 0.007

UBXN2B (UniProt Q14CS0)
inactive: [1] 0.148 | [2] 0.049 | [3] 0.147 | [4] 0.065 | [5] -0.066 | [6] -0.035 | [7] -0.142 | [8] 0.074 | [9] -0.068

TUBB8B (UniProt A6NNZ2)
inactive: [1] -0.089 | [2] 0.127 | [3] -0.179 | [4] -0.023 | [5] -0.067 | [6] 0.036 | [7] -0.012 | [8] 0.016 | [9] -0.01

Taken from the listing (two entries):
UBAP2L isoform 5 (UniProt Q14157)
inactive: [1] -0.002 | [2] 0.025 | [3] 0.013 | [4] 0.023 | [5] -0.006 | [6] 0.013 | [7] 0.028 | [8] -0.01 | [9] 0.03 | [10] -0.002

UBE2M (UniProt P61081)
inactive: [1] -0.026 | [2] 0.026 | [3] -0.031 | [4] 0.009 | [5] 0.011 | [6] -0.001 | [7] 0.074 | [8] 0.013 | [9] -0.049 | [10] -0.061

Next part.

TYMS (UniProt P04818)
inactive: [1] -0.009 | [2] 0.006 | [3] 0.022 | [4] -0.053 | [5] -0.041 | [6] -0.004 | [7] -0.035 | [8] -0.064 | [9] 0 | [10] 0.008

UBE3B (UniProt Q7Z3V4)
inactive: [1] 0.102 | [2] -0.052 | [3] 0.175 | [4] 0.016 | [5] -0.044 | [6] 0.029 | [7] -0.099 | [8] -0.132 | [9] -0.069 | [10] 0.055

UBE2G1 (UniProt P62253)
inactive: [1] 0.004 | [2] -0.01 | [3] -0.048 | [4] 0.027 | [5] 0.028 | [6] 0.04 | [7] 0.005 | [8] 0.025 | [9] 0.014 | [10] 0.008

UBE2K (UniProt P61086)
inactive: [1] -0.005 | [2] -0.023 | [3] -0.031 | [4] 0.057 | [5] 0.026 | [6] -0.017 | [7] 0.021 | [8] 0.034 | [9] -0.023 | [10] -0.028
